Data taken from ChEMBL document CHEMBL3988442, “University of Dundee, Small-Polar-MMV Screening Library” (2021).

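Whole-cell assay for inhibitors of Mycobacterium tuberculosis growth, labelled Cornell in the record; the read-out is not stated. The concentration is filed as 10 mM, unlikely as a test dose, so the dose is not known. Higher means stronger inhibition (inferred from two other growth screens of the library). About 53,000 compounds were tested under these conditions; 1.7% (about 900) showed 50% or more at least once.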

Values are the deposited “Percent Effect”, in %.
The record does not define 0% and 100%; most values in the screen are far below 50% and negative numbers occur (in some assays of this library far below -100).
The compounds are a random part of those screened.

| compound | Percent Effect |
|---|---|
| `Cn1nc(C#N)c2c1CN(C(=O)c1ccco1)CCC2` | -0.3724 |
| `CCOCCNC(=O)Nc1cccc(-c2nccn2C)c1` | -39.66 |
| `O=C1CC(c2ccsc2)c2sc(C(=O)O)c(-c3ccccc3)c2N1` (stereo not given) | -23.75 |
| `CCCS(=O)(=O)N1CCN(c2ccc3nnc(CC)n3n2)CC1` | -21.52 |
| `CC(C)n1[nH]c(=O)c2c1NC(=O)CC2C1CCCCC1` (stereo not given) | -5.484 |
| `CCOC(=O)N(C)CC(=O)NCCc1coc(-c2ccc(C)cc2)n1` | -23.81 |
| `Cc1cc(CN2CCN(C(=O)NCCc3csc(C)n3)CC2)on1` | -4.713 |
| `COc1ccccc1-n1c(CC(C)C)nnc1SCC(=O)O` | 25.85 |
| `Oc1ccc(C2Nc3ccccc3C3=NCCCN32)cc1` (stereo not given) | 27.49 |
| `Cn1cc(S(=O)(=O)NCCc2ccsc2)cn1` | -37.93 |
| `CS(=O)(=O)CCC(=O)NC1CC(c2ccccc2Cl)C1` (stereo not given) | 5.503 |
| `CN(C)c1ncc(NS(=O)(=O)c2ccc(OC(F)(F)F)cc2)cn1` | 23.91 |
| `Cc1n[nH]c(C)c1CN(C)C(C(=O)O)c1c(F)cccc1OC(C)C` (stereo not given) | 21.76 |
| `CN(Cc1ccccc1)CC(O)Cn1cnc2c(cnn2C)c1=O` (stereo not given) | -10.52 |
| `O=C(c1cc(Cl)c2c(c1)OCO2)N1CCN(c2ncccn2)CC1` | -26.19 |
| `Cc1nc2c(C)cccc2cc1C(=O)N1CCC2(CCNCC2)CC1` | 19.93 |
| `O=C(c1n[nH]c(=O)c2ccccc12)N1CCC(O)(CN2CCOCC2)C1` (stereo not given) | -32.04 |
| `Cn1ccnc1C(O)(CCNCc1ccc(Cl)o1)C(F)(F)F` (stereo not given) | 26.02 |
| `O=C(O)C(F)(F)F.[H][C@@]12OCCN(c3ncc(F)cn3)[C@@]1([H])CC[C@H]2OCCN1CCCC1` | 13.74 |
| `O=C(O)C(F)(F)F.O=C(O)C(F)(F)F.O=C(O)C(F)(F)F.c1ccc(Cn2cc3c(n2)C(CNCC2CCOCC2)OCC3)nc1` (stereo not given) | 12.94 |
| `CCNC(=O)[C@@H]1C[C@H](n2cc(CC3CCCCC3)nn2)CN1` | 0.558 |
| `Cc1nc(Nc2ccccn2)cc(C2CCCN2C2CCOCC2)n1` (stereo not given) | -7.065 |
| `Cn1c(=O)[nH]c2cc(C(=O)OCCCn3ccccc3=O)ccc21` | -2.612 |
| `Cc1ccc2nc(CNCCCOc3ccccc3)cc(O)c2c1` | -0.2464 |
| `c1ccc(-c2ncc3c(n2)C2(CCN(c4ncccn4)C2)COC3)cc1` (stereo not given) | -13.05 |
| `Cc1cc(C(C)(O)CNC(=O)c2ccc(Br)o2)c(C)o1` (stereo not given) | 53.63 |
| `O=C(O)C(F)(F)F.[H][C@@]12CCCO[C@]1([H])[C@@H](OCc1cccnc1)CN2C(=O)c1occc1C` | 8.327 |
| `Cc1ccc(C(CNC(=O)c2cc(CC(C)C)nn2C)N(C)C)cc1` (stereo not given) | 25.73 |
| `COc1cc(NC(=O)NC(C2CC2)C2CC2)ccc1N1CCOC1=O` | 31.11 |
| `COCCN(Cc1ccco1)Cc1nc(-c2ccsc2)no1` | -23.17 |
| `Cn1c(CN2CCN(CC3CCCO3)CC2)nc2ccccc21` (stereo not given) | 22.41 |
| `O=S(=O)(Cc1ccccc1)c1nnc(N2CCCC2)s1` | 26.75 |
| `CCc1nnc2n1CCN(CCC(=O)Nc1cc(C)on1)C2` | -6.455 |
| `C1CCN(Cc2nnn3c2CN(CC2CC2)CCC3)C1` | -21.61 |
| `[H][C@]12CC[C@@]3(N=C(C)N(CC4CC4)C3=O)[C@@]1([H])CN(S(=O)(=O)CC(C)C)C2` | -30.79 |
| `O=C1CCC(C(=O)N2CCC(Cn3cc(C4CCCC4)nn3)CC2)=NN1` | 11.74 |
| `COCCN1C(=O)CCC12CCN(C(=O)NC(C)C)CC2` | -32.21 |
| `CCCc1nnc(NC2CCN(C3CCSCC3)CC2)o1` | 15.94 |
| `Cc1ccc(C(=O)N2CCC(c3noc(-c4cccnc4)n3)CC2)cn1` | 37.05 |
| `[H][C@@]12CCN(C(=O)c3ccncn3)C[C@@]1([H])O[C@@H](C)C2` | 2.51 |
| `O=C1CCC(C(=O)Nc2cnn(-c3ccccc3Cl)c2)N1` (stereo not given) | -6.196 |
| `CCNc1ncc(C(=O)N2CCc3c(nc(C)nc3N(C)C)C2)cn1` | -24.57 |
| `Cc1ccc(CN2CCN(CC(=O)Nc3ccc4nsnc4c3)CC2)o1` | 54.44 |
| `CC(C)N(C)S(=O)(=O)NCc1cccnc1N(C)C` | -67.77 |
| `[H][C@]12CN(Cc3ccoc3)CCN1C[C@@H](c1ccccc1)[C@@H]2C(=O)NC` | 13.74 |
| `CNS(=O)(=O)c1ccc(C(=O)NCCNc2ncccn2)cc1` | 10.51 |
| `Cc1nc(C2CCCN2Cc2cc(Cl)c3c(c2)OCCO3)no1` (stereo not given) | 40.9 |
| `COc1ccc(OC)c2c(C)cc(N(C)Cc3cc(C)on3)nc12` | -9.414 |
| `NC(=O)CCC1CCCN(c2ccc3c(Cl)ccnc3c2F)C1` (stereo not given) | 25.58 |
| `COCCC(=O)N1C[C@@H](O)[C@H](N2CCN(c3ccccc3)CC2)C1` | 24.21 |
| `CC(C(=O)NCc1cccc(N2CCCC2=O)c1)S(C)(=O)=O` (stereo not given) | -29.78 |
| `Cc1nccn1-c1ccc(NC(=O)C2CCCN2CC2CC2)cc1` (stereo not given) | 16.69 |
| `CCS(=O)(=O)N1CCC2(CC(=O)N(c3ccccc3C)C2)C1` (stereo not given) | -23.68 |
| `Cc1cnn(CC2CN(Cc3cccc(OCC(N)=O)c3)CCO2)c1` (stereo not given) | -11.46 |
| `CCn1nc(C)c(CCN2CC3(CCOC3)CCC2=O)c1C` (stereo not given) | -10.42 |
| `CCc1nc(CN2CCN(CC(O)c3ccccc3)CC2)no1` (stereo not given) | -48.63 |
| `CN(C)CCOCC1CN(Cc2cccs2)Cc2ccnn2C1.O=C(O)C(F)(F)F.O=C(O)C(F)(F)F.O=C(O)C(F)(F)F` (stereo not given) | -12.03 |
| `O=C(C1CCCOC1)N1CCN(CC(F)(F)F)c2ccccc21` (stereo not given) | 20.7 |
| `COCc1nc2cc(NCc3scnc3C)ccc2o1` | 107 |
| `Cc1ccccc1C(C(=O)NCCSC(F)(F)F)N(C)C` (stereo not given) | 24.14 |
| `CSCCC1c2nc[nH]c2CCN1Cc1cc(Cl)ccc1O` (stereo not given) | 102.1 |
| `Cc1cn2c(n1)CCC(NC(=O)c1cc(C3CC3)[nH]n1)C2` (stereo not given) | -4.14 |
| `CN(CCCc1cc(-c2ccccc2)n[nH]1)C(=O)CCCn1cncn1` | 9.602 |
| `COc1cccc(-n2ccc3nc(N4CCCC4)ncc3c2=O)c1` | -21.92 |
| `O=C(O)C(F)(F)F.O=C(O)C(F)(F)F.[H][C@@]12CN(Cc3ccco3)C[C@H](C(=O)Nc3cccnc3)[C@]1([H])CCO2` | 11.18 |
| `CCOC(=O)C1CCN(C(=O)c2cc(F)ccc2-n2cnnn2)CC1` | -0.0971 |
| `O=C(O)C(F)(F)F.O=C(O)C(F)(F)F.c1cncc(OCc2nnn3c2CN(Cc2ccsc2)CCC3)c1` | 16.35 |
| `COc1ccc(Cc2nc3c([nH]2)CC(C)(C)CNC3=O)cc1OC` | 6.194 |
| `c1ccc(-n2ncc(CNCC3CCCN3c3cccnn3)n2)cc1` (stereo not given) | 12.12 |
| `Cn1cc(C2CCCN2C(=O)CCn2ccc3ccccc32)cn1` (stereo not given) | 18.56 |
| `Fc1ccc(CN2CCC(c3n[nH]c4nccnc34)CC2)cc1F` | 1.485 |
| `Cc1cc(=O)n(CCNS(=O)(=O)c2ccccc2)cn1` | 7.371 |
| `c1cnc(N2CCCC(Cc3nccs3)C2)nc1` (stereo not given) | 39.28 |
| `O=C(c1ccc(=O)[nH]n1)N(CCO)Cc1cc(Br)ccc1F` | 28.33 |
| `Cc1[nH]nc(CCC(=O)N2CCCC(OCc3cccnc3)C2)c1C` (stereo not given) | 8.562 |
| `O=C(O)COc1ccccc1CN1CCCC1c1ccncn1` (stereo not given) | -19.71 |
| `Cc1nc(N2CCN(C)CC2)ncc1C(=O)N1CC(C)(C)C(C)(O)C1` (stereo not given) | -13.48 |
| `CCc1nc(C2CCCN2C(=O)CCCn2cccn2)no1` (stereo not given) | 16.34 |
| `CC(C)N1CCCn2nc(C(=O)NCCc3c[nH]cn3)cc2C1` | -33.31 |
| `O=C(O)C(F)(F)F.[H][C@]12CCCC(OC)[C@@]1([H])CN(Cc1csc(C)n1)C2` (stereo not given in full) | 7.047 |
| `[H][C@]12CCN(S(C)(=O)=O)[C@@]1([H])CC[C@H](COCC(=O)N1CCCC1)O2` | -45.85 |
| `CN1CCN(c2cnn(CCn3cccn3)c(=O)c2)CC1` | -11.86 |
| `CC(=O)Cc1c(C)nn(-c2cncc(N)c2)c1C` | 2.806 |
| `CCN(CCn1cccn1)Cc1nc(-c2cccc(C)c2)oc1C` | 17.45 |
| `Cc1cccc(N2CC3(CCN(S(=O)(=O)c4cccs4)C3)CC2=O)c1` (stereo not given) | 35.98 |
| `O=C(O)c1ccc2c(c1)C1(CCCCC1)CN2C(=O)c1cccc(F)c1` | 26.88 |
| `O=C(Cn1nc(Br)nc1Br)N1CCOCC1` | -6.319 |
| `Cc1cnc(N2CCOCC3(CCN(c4ccccn4)C3)C2)nc1.O=C(O)C(F)(F)F.O=C(O)C(F)(F)F` (stereo not given) | -5.436 |
| `CCOC(=O)CN(C)Cc1cnc(C)s1` | 4.993 |
| `O=C(CN1C=Nc2ccccc2S1(=O)=O)NCc1ccccc1` | -30.6 |
| `Cn1ccc(C(=O)N2CCN(c3ccccn3)CC2)cc1=O` | -42.14 |
| `FCCOc1cccc(NCc2c[nH]nc2-c2cccnc2)c1` | 21.67 |
| `CC(C)c1nn(C)c(N(C)C)c1CNCc1cccc(CN(C)C)c1.Cl` | 43.11 |
| `CC(=O)c1ccc(Cl)c(Cl)c1OCC(=O)NC(N)=O` | -25.82 |
| `CC(=O)NC1CCN(C(=O)c2cnc(COc3ccccc3)nc2O)C1` (stereo not given) | -28.12 |

For reference, 6 entries once more:

{"compound": "CC(C)n1[nH]c(=O)c2c1NC(=O)CC2C1CCCCC1", "stereo": "stereo not given", "Percent Effect": -5.484}
{"compound": "CCOC(=O)CN(C)Cc1cnc(C)s1", "Percent Effect": 4.993}
{"compound": "COc1ccccc1-n1c(CC(C)C)nnc1SCC(=O)O", "Percent Effect": 25.85}
{"compound": "CCCS(=O)(=O)N1CCN(c2ccc3nnc(CC)n3n2)CC1", "Percent Effect": -21.52}
{"compound": "c1ccc(-n2ncc(CNCC3CCCN3c3cccnn3)n2)cc1", "stereo": "stereo not given", "Percent Effect": 12.12}
{"compound": "CC(=O)Cc1c(C)nn(-c2cncc(N)c2)c1C", "Percent Effect": 2.806}